PubChem BioAssay AID1224830, NIAID – 2016

Assay: 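Host factors that control LPS-induced TNF expression in human macrophages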 (primary screen)
Cell system: human THP-1 monocytic leukaemia cells, TNF dual-luciferase reporter clone, PMA-differentiated to macrophage-like cells
Knock-down reagent: siRNA pool against human genes, 50 nM
Duration: LPS for 4 h, given about 3 days after siRNA transfection
Conditions: bacterial LPS (TLR4 ligand), 10 ng/ml
Measured: 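Ratio of firefly to renilla light, scaled to the plate median and expressed as a robust z-score per replicate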
Scale: TNF reporter robust z-score: higher = stronger TNF reporter response to LPS
Active means: 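Each well counts as active if its z-score is over 2.8 or under -1.5; controls are left without a call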
Here is one part, drawn at random, of about 18,000 reagents tested. Over the whole deposit, about 2,900 (16%) are marked active. 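Calls are made per well; low scores hint the gene aids the LPS response, high scores that it dampens it.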 Repeated entries: four replicate wells of each siRNA pool.

| gene symbol | TNF reporter robust z-score | Call |
| --- | --- | --- |
| PARP4 (GeneID 143) | 2.85 | active |
| PARP4 (GeneID 143) | 3.02 | active |
| PARP4 (GeneID 143) | 1.92 | inactive |
| PARP4 (GeneID 143) | 1.86 | inactive |
| C11orf40 (GeneID 143501) | 0.22 | inactive |
| C11orf40 (GeneID 143501) | 0.64 | inactive |
| C11orf40 (GeneID 143501) | 0.71 | inactive |
| C11orf40 (GeneID 143501) | -0.2 | inactive |
| LRIG2 (GeneID 9860) | -0.52 | inactive |
| LRIG2 (GeneID 9860) | -0.17 | inactive |
| LRIG2 (GeneID 9860) | -0.21 | inactive |
| LRIG2 (GeneID 9860) | -0.16 | inactive |
| SPICE1 (GeneID 152185) | -2.07 | active |
| SPICE1 (GeneID 152185) | -1.92 | active |
| SPICE1 (GeneID 152185) | -1.82 | active |
| SPICE1 (GeneID 152185) | -1.79 | active |
| TMEM45A (GeneID 55076) | -0.22 | inactive |
| TMEM45A (GeneID 55076) | -0.09 | inactive |
| TMEM45A (GeneID 55076) | -0.51 | inactive |
| TMEM45A (GeneID 55076) | 0.13 | inactive |
| NUCB1 (GeneID 4924) | 2.78 | inactive |
| NUCB1 (GeneID 4924) | 2.16 | inactive |
| NUCB1 (GeneID 4924) | 1.93 | inactive |
| NUCB1 (GeneID 4924) | 1.14 | inactive |
| FGFR3 (GeneID 2261) | -1.17 | inactive |
| FGFR3 (GeneID 2261) | -1.34 | inactive |
| FGFR3 (GeneID 2261) | -1.49 | inactive |
| FGFR3 (GeneID 2261) | -0.84 | inactive |
| PCDHA4 (GeneID 56144) | -1.7 | active |
| PCDHA4 (GeneID 56144) | -1.99 | active |
| PCDHA4 (GeneID 56144) | -2.01 | active |
| PCDHA4 (GeneID 56144) | -1.62 | active |
| ARV1 (GeneID 64801) | -1.26 | inactive |
| ARV1 (GeneID 64801) | -1.29 | inactive |
| ARV1 (GeneID 64801) | -1.22 | inactive |
| ARV1 (GeneID 64801) | -1.45 | inactive |
| MAP1S (GeneID 55201) | -0.15 | inactive |
| MAP1S (GeneID 55201) | 0.22 | inactive |
| MAP1S (GeneID 55201) | -0.35 | inactive |
| MAP1S (GeneID 55201) | 1.42 | inactive |
| DIPK2B (GeneID 79742) | 0.62 | inactive |
| DIPK2B (GeneID 79742) | -0.75 | inactive |
| DIPK2B (GeneID 79742) | -0.09 | inactive |
| DIPK2B (GeneID 79742) | 1.29 | inactive |
| ABCC5 (GeneID 10057) | 0.19 | inactive |
| ABCC5 (GeneID 10057) | 1.78 | inactive |
| ABCC5 (GeneID 10057) | 1.23 | inactive |
| ABCC5 (GeneID 10057) | 0.79 | inactive |
| FZD4 (GeneID 8322) | 0.28 | inactive |
| FZD4 (GeneID 8322) | -0.46 | inactive |
| FZD4 (GeneID 8322) | -0.11 | inactive |
| FZD4 (GeneID 8322) | 0.3 | inactive |
| SERTAD3 (GeneID 29946) | 1.18 | inactive |
| SERTAD3 (GeneID 29946) | 0.02 | inactive |
| SERTAD3 (GeneID 29946) | 0.08 | inactive |
| SERTAD3 (GeneID 29946) | 2.12 | inactive |
| VAMP3 (GeneID 9341) | 1.34 | inactive |
| VAMP3 (GeneID 9341) | -0.47 | inactive |
| VAMP3 (GeneID 9341) | 0.3 | inactive |
| VAMP3 (GeneID 9341) | 0.52 | inactive |
| USP28 (GeneID 57646) | -0.19 | inactive |
| USP28 (GeneID 57646) | 0.76 | inactive |
| USP28 (GeneID 57646) | 0.27 | inactive |
| USP28 (GeneID 57646) | 1.53 | inactive |
| P4HTM (GeneID 54681) | 1.45 | inactive |
| P4HTM (GeneID 54681) | 1.21 | inactive |
| P4HTM (GeneID 54681) | 2.5 | inactive |
| P4HTM (GeneID 54681) | 4.74 | active |
| PLG (GeneID 5340) | 1.75 | inactive |
| PLG (GeneID 5340) | 0.51 | inactive |
| PLG (GeneID 5340) | -0.28 | inactive |
| PLG (GeneID 5340) | 0.37 | inactive |
| RNASE3 (GeneID 6037) | 0.79 | inactive |
| RNASE3 (GeneID 6037) | 0.02 | inactive |
| RNASE3 (GeneID 6037) | 0.61 | inactive |
| RNASE3 (GeneID 6037) | 0.38 | inactive |
| DYNLRB1 (GeneID 83658) | 1.34 | inactive |
| DYNLRB1 (GeneID 83658) | 2.17 | inactive |
| DYNLRB1 (GeneID 83658) | 1.64 | inactive |
| DYNLRB1 (GeneID 83658) | 1.75 | inactive |
| MED17 (GeneID 9440) | -0.17 | inactive |
| MED17 (GeneID 9440) | -0.08 | inactive |
| MED17 (GeneID 9440) | -0.39 | inactive |
| MED17 (GeneID 9440) | -1.13 | inactive |
| DARS1 (GeneID 1615) | 1.18 | inactive |
| DARS1 (GeneID 1615) | -0.03 | inactive |
| DARS1 (GeneID 1615) | 0.46 | inactive |
| DARS1 (GeneID 1615) | 1.27 | inactive |
| GRXCR1 (GeneID 389207) | -0.13 | inactive |
| GRXCR1 (GeneID 389207) | 0.44 | inactive |
| GRXCR1 (GeneID 389207) | 0.53 | inactive |
| GRXCR1 (GeneID 389207) | 0.94 | inactive |
| NMUR2 (GeneID 56923) | -1.29 | inactive |
| NMUR2 (GeneID 56923) | -0.93 | inactive |
| NMUR2 (GeneID 56923) | -0.79 | inactive |
| NMUR2 (GeneID 56923) | 1.71 | inactive |
| SALL3 (GeneID 27164) | -1.65 | active |
| SALL3 (GeneID 27164) | -1.03 | inactive |
| SALL3 (GeneID 27164) | -1.45 | inactive |
| SALL3 (GeneID 27164) | -1.31 | inactive |
| PRKCA (GeneID 5578) | 1.88 | inactive |
| PRKCA (GeneID 5578) | 0.82 | inactive |
| PRKCA (GeneID 5578) | 1.3 | inactive |
| PRKCA (GeneID 5578) | 2.36 | inactive |
| OR5AR1 (GeneID 219493) | 1.11 | inactive |
| OR5AR1 (GeneID 219493) | 0.98 | inactive |
| OR5AR1 (GeneID 219493) | 1.91 | inactive |
| OR5AR1 (GeneID 219493) | -0.02 | inactive |
| C22orf31 (GeneID 25770) | -1.3 | inactive |
| C22orf31 (GeneID 25770) | -0.62 | inactive |
| C22orf31 (GeneID 25770) | -0.52 | inactive |
| C22orf31 (GeneID 25770) | -1.31 | inactive |
| RBM38 (GeneID 55544) | 1.25 | inactive |
| RBM38 (GeneID 55544) | -0.6 | inactive |
| RBM38 (GeneID 55544) | -1.08 | inactive |
| RBM38 (GeneID 55544) | -0.12 | inactive |
| MYOCD (GeneID 93649) | 0.01 | inactive |
| MYOCD (GeneID 93649) | -0.63 | inactive |
| MYOCD (GeneID 93649) | 0.11 | inactive |
| MYOCD (GeneID 93649) | 0.82 | inactive |
| LRRC8A (GeneID 56262) | 0.32 | inactive |
| LRRC8A (GeneID 56262) | 1.34 | inactive |
| LRRC8A (GeneID 56262) | 0.5 | inactive |
| LRRC8A (GeneID 56262) | -0.02 | inactive |
| NUDT18 (GeneID 79873) | -0.24 | inactive |
| NUDT18 (GeneID 79873) | -0.03 | inactive |
| NUDT18 (GeneID 79873) | 0.21 | inactive |
| NUDT18 (GeneID 79873) | -0.41 | inactive |
| GPR180 (GeneID 160897) | -0.54 | inactive |
| GPR180 (GeneID 160897) | 0.4 | inactive |
| GPR180 (GeneID 160897) | 0.48 | inactive |
| GPR180 (GeneID 160897) | 0.6 | inactive |
| SPRED3 (GeneID 399473) | 0.71 | inactive |
| SPRED3 (GeneID 399473) | 2.27 | inactive |
| SPRED3 (GeneID 399473) | 0.23 | inactive |
| SPRED3 (GeneID 399473) | 0.77 | inactive |
| ZNF554 (GeneID 115196) | 1.4 | inactive |
| ZNF554 (GeneID 115196) | 2.28 | inactive |
| ZNF554 (GeneID 115196) | 0.58 | inactive |
| ZNF554 (GeneID 115196) | 0.57 | inactive |
